Residue numbers refer to the chain shown, from its start. Results are given in words; binding and its absence hold for the method and conditions named. For part of these data: Binding seen in cells or lysates may run through a third protein. Some binding calls cover weakened binding; strength is not graded here. For part of these data: Sequences can lack the tags named with a protein. Values belong to the binder of their own block, whether it stands above or below them.
Key:
[1] = molecular target: PIK3R3 (p55γ regulatory subunit of PI3 kinase), two-hybrid bait (human) (UniProt Q92569); experiment: two-hybrid; pY-Y2H matrix screen and pairwise retest: pY-reader bait (pBTM116-D9) co-transformed with one of nine human non-receptor tyrosine kinases (pASZ-DM), mated with ~17,000 prey strains; growth on SD5 (-Leu-Trp-Ura-His-Ade), 30°C, 5-7 days; kinase dependency retested with all kinases and empty vectors
[2] = molecular target: GST-PIK3R3 (FL, aa 1-461) (human) (UniProt Q92569); experiment: pull-down; GST fusion (GRB2(SH2) or PIK3R3 FL) from E. coli on glutathione agarose, incubated 2 h with lysate of cells expressing tagged TSPAN2 (ABL2 induced 24 h or H2O2 15 min); lysis buffer H (50 mM Hepes pH 7.4, 150 mM NaCl, 1% Triton X-100); immunoblot; in Fig 4B with and without phosphatase treatment of the lysate; only the target purified
YFP-F2-PIK3R3 (human) = YFP-F2-PIK3R3 (human) (UniProt Q92569); experiment: split reporter; YFP-based protein complementation assay (Venus F1 aa 1-158, F2 aa 159-239) in transfected HEK293 cells, fixed 24 h after transfection, confocal microscopy
[3] = molecular target: T1, SH2D1B, co-IP construct (human) (UniProt O14796); experiment: co-IP; luciferase-based co-IP from HEK293 (Flp-In TREX, stably ABL2, with or without doxycycline induction): protein A-tagged protein precipitated on IgG-coated plates, firefly-V5-tagged partner read by luminescence; lysis buffer H with phosphatase inhibitor, 4°C; triplicate transfections; positive at ratio > 2 and Z-score > 2
T1 sequence: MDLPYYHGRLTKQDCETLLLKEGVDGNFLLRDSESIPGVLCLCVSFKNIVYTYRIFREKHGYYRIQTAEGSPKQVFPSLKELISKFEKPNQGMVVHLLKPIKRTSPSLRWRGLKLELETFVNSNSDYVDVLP

[4] = molecular target: T2, SH2D1B, two-hybrid bait (human) (UniProt O14796); experiment: two-hybrid; pY-Y2H matrix screen and pairwise retest: pY-reader bait (pBTM116-D9) co-transformed with one of nine human non-receptor tyrosine kinases (pASZ-DM), mated with ~17,000 prey strains; growth on SD5 (-Leu-Trp-Ura-His-Ade), 30°C, 5-7 days; kinase dependency retested with all kinases and empty vectors
T2 sequence: T1 sequence

binding [1]: binds
B1: TSPAN2 (tetraspanin 2), two-hybrid prey (protein, UniProt O60636-1 1-221)
chain: MGRFRGGLRCIKYLLLGFNLLFWLAGSAVIAFGLWFRFGGAIKELSSEDKSPEYFYVGLYVLVGAGALMMAVGFFGCCGAMRESQCVLGSFFTCLLVIFAAEVTTGVFAFIGKGVAIRHVQTMYEEAYNDYLKDRGKGNGTLITFHSTFQCCGKESSEQVQPTCPKELLGHKNCIDEIETIISVKLQLIGIVGIGIAGLTIFGMIFSMVLCCAIRNSRDVI

binding (YFP-F2-PIK3R3 (human)): binds
B4: YFP-F1-TSPAN2 (protein, UniProt O60636-1 1-221)
chain: B1 chain

Further lines, the binder ahead of its results:

B2: PA-TSPAN2-124Y (all tyrosines but Y124 mutated to phenylalanine) (protein, UniProt O60636-1 1-221)
chain: B1 chain with Y13F, Y54F, Y56F, Y60F, Y128F, Y131F
binding [2]: binds

B3: PA-TSPAN2 wild type (protein, UniProt O60636-1 1-221)
chain: B1 chain
binding [2]: binds

B5: OLIG1, co-IP construct (protein, UniProt Q8TAK6 1-271)
chain: MYYAVSQARVNAVPGTMLRPQRPGDLQLGASLYELVGYRQPPSSSSSSTSSTSSTSSSSTTAPLLPKAAREKPEAPAEPPGPGPGSGAHPGGSARPDAKEEQQQQLRRKINSRERKRMQDLNLAMDALREVILPYSAAHCQGAPGRKLSKIATLLLARNYILLLGSSLQELRRALGEGAGPAAPRLLLAGLPLLAAAPGSVLLAPGAVGPPDALRPAKYLSLALDEPPCGQFALPGGGAGGPGLCTCAVCKFPHLVPASLGLAAVQAQFSK
binding [3]: binds

B6: OLIG1, two-hybrid prey (protein, UniProt Q8TAK6 1-271)
chain: B5 chain
binding [4]: binds
